Measurements reported in US20030176373.
For some assays here: Negatives hold for the conditions tested. For some assays here: Weaker means in comparison with the reference protein, sequence or condition of that experiment.

Chains of the proteins cited; added tags and fusions are not shown. A line that says so, or that is headed by a name, gives the form on record, which may keep a tag or linker.
Ku70/Ku80 heterodimer (Ku antigen) (Mus musculus), one chain, as listed by the source, chain 1 of 2: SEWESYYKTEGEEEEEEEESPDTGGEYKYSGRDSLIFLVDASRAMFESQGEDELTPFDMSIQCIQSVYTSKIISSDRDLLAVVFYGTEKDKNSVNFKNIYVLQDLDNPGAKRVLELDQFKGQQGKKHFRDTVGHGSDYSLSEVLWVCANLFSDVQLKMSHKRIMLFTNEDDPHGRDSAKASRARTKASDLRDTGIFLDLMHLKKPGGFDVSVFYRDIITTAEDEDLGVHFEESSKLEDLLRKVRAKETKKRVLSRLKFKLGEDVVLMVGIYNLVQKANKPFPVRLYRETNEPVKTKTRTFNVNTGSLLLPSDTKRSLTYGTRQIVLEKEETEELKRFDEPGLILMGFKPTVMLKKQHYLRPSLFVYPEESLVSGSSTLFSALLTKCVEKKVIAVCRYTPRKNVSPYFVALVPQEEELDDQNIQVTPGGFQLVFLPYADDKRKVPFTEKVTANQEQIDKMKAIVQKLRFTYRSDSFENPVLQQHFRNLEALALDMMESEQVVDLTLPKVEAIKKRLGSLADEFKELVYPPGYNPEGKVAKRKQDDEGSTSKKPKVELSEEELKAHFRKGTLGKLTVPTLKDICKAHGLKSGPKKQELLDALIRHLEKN
Ku70/Ku80 heterodimer (Ku antigen) (Mus musculus), one chain, as listed by the source, chain 2 of 2: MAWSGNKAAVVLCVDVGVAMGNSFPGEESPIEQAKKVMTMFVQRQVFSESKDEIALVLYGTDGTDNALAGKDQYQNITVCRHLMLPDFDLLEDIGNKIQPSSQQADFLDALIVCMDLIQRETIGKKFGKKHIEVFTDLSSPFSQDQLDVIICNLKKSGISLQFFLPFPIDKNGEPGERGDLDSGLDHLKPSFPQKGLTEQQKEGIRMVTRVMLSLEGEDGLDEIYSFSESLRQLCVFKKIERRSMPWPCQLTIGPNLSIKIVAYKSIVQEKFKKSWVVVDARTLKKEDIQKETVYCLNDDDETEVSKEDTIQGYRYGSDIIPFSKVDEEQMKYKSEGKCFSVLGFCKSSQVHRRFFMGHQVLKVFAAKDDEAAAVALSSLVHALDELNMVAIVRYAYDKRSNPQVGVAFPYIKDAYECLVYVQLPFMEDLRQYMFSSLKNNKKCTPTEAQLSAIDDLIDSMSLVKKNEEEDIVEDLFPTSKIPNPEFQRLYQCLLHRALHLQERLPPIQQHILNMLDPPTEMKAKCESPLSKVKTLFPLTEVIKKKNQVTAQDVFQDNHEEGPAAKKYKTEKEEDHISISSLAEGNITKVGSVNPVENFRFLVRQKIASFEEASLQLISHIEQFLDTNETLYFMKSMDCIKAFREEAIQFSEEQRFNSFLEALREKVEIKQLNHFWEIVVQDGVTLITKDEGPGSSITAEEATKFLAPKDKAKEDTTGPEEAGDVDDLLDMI

Assays:
[1] = test system: Ku70/Ku80 heterodimer (Ku antigen) (Mus musculus); experiment: pull-down; settings: Sepharose affinity column, KCl gradient elution 50 mM to 1.55 M; purified native protein
[2] = test system: Ku70/Ku80 heterodimer (Ku antigen) (Mus musculus); experiment: competition with a labelled probe; settings: no significant competition at 0.1-0.4 ug; purified native protein; variant of ds-ISS-ODN
[3] = test system: DNA-PK (DNA-PKcs/Ku70/Ku80); experiment: activity assay; settings: purified native protein, protein details: affinity-purified, Promega, single-stranded DNA
[4] = test system: Ku70/Ku80 heterodimer (Ku antigen) (Mus musculus); experiment: EMSA; settings: anti-Ku supershift assay; 4 C; unlabeled ds-ISS competes; purified native protein; label: 32P
[5] = PS, no substantial DNA-PK activation, variant of ISS-ODN (ps-ss)

TGACTGAACGTTCGAGATGA (double strand) [ds-ISS-ODN affinity column ODN]
binding result [1]: binds

TGACTGTGAACCTTAGAGATGA (double strand) [ds-M-ODN]
binding result [2]: no binding

TGACTGTGAACCTTAGAGATGA [Control-ODN (1) CpC (ps-ss)]
activity on this sequence [3, 5]: not active

TGACTGTGAACGTTAGAGATGA [ISS-ODN (ps-ss)]
activity on this sequence ([3]; PS, stimulates GST-p53(1-70) phosphorylation, 0.1-1 ng/reaction, 5 mM MgCl2, 30 C, which ISS-ODN (SEQ 1 or 10) not stated): active

TGACTGTGAACGTTAGAGATGA [methylated ISS-ODN (ps-ss)]
activity on this sequence ([3]; PS, 5mC at C of CpG (position 11), DNA-PK kinase activation weaker than unmethylated, variant of ISS-ODN (ps-ss)): less active

TGACTGTGAACGTTAGAGATGA [methylated po-ISS-ODN]
activity on this sequence ([3]; 5mC at C of CpG (position 11), weaker than unmethylated po-ISS-ODN, variant of po-ISS-ODN): less active

TGACTGTGAACGTTAGAGATGA [po-ISS-ODN]
activity on this sequence ([3]; weak activation only at 50-100 ng/reaction, variant of ISS-ODN (ps-ss)): less active

TGACTGTGAACGTTCGAGATGA (double strand) [ds-ISS-ODN]
binding result [4]: binds

TGACTGTGAAGGTTAGAGATGA [M-ODN GpG (ps-ss)]
activity on this sequence [3, 5]: not active

TGACTGTGAATATTAGAGATGA [Control-ODN (3) ApT (ps-ss)]
activity on this sequence [3, 5]: not active

TGACTGTGTTCCTTAGAGATGA [Control-ODN (2) TTCC (ps-ss)]
activity on this sequence [3, 5]: not active
